# According to patent US20240025849A1 (MAX DELBRÜCK-CENTRUM FÜR MOLEKULARE MEDIZIN IN DER …, priority 2020, published 2024):
# Assay: NO quenching control: NO enriched supernatant incubated with compound, Griess assay
# Settings: incubation 24 hours, 0.002 to 20 μM
smiles,measurement,value
COc1ccc(NC(=O)C(NC(=O)C2CCCN2C(=O)OCc2ccccc2)c2ccc(OC)cc2)cc1 (stereo not shown) [C1],NO concentration in NO enriched supernatant (quenching),no dose dependent reduction; also recorded: Neither C1 nor DMSO altered the NO concentration in the supernatant

# Entries after “also recorded” stand apart in the source; their conditions may differ.
